# Experimental data reported in publication PMC4107866.
# No constants are given. Whether binding was seen depends on the method and setting. Binding seen in cells or lysates may run through a third protein. A yes stands for co-enrichment or nearness to the bait. Other partners may have been found.
# Molecular target: 3XFLAG-TEV-CBP-Cul3 (human) (UniProt Q13618)
# Assay: affinity purification with mass spectrometry; tandem affinity purification of 3XFLAG-TEV-CBP-Cul3 from lysate of transfected HEK293 cells (RIPA buffer): anti-FLAG M2 beads, TEV cleavage, calmodulin beads, elution with EGTA; MudPIT LC/MS-MS; proteins also found with 3XFLAG-TEV-CBP-actin removed
row,Binder,binding
1,"LRR5 (fibromodulin) (MudPIT-identified) (protein, UniProt Q06828 19-376) QYEDDPHWWFHYLRSQQSTYYDPYDPYPYETYEPYPYGVDEGPAYTYGSPSPPDPRDCPQECDCPPNFPTAMYCDNRNLKYLPFVPSRMKYVYFQNNQITSIQEGVFDNATGLLWIALHGNQITSDKVGRKVFSKLRHLERLYLDHNNLTRMPGPLPRSLRELHLDHNQISRVPNNALEGLENLTALYLQHNEIQEVGSSMRGLRSLILLDLSYNHLRKVPDGLPSALEQLYMEHNNVYTVPDSYFRGAPKLLYVRLSHNSLTNNGLASNTFNSSSLLELDLSYNQLQKIPPVNTNLENLYLQGNRINEFSISSFCTVVDVVNFSKLQVLRLDGNEIKRSAMPADAPLCLRLASLIEI",binds
2,"KIAA1602 protein (protein, UniProt Q9HCH0 1-1334) MSEAMDQPAGGPGNPRPGEGDDGSMEPGTCQELLHRLRELEAENSALAQANENQRETYERCLDEVANHVVQALLNQKDLREECIKLKKRVFDLERQNQMLSALFQQKLQLTTGSLPQIPLTPLQPPSEPPASPSLSSTEGPAAPLPLGHCAGQREVCWEQQLRPGGPGPPAAPPPALDALSPFLRKKAQILEVLRALEETDPLLLCSPATPWRPPGQGPGSPEPINGELCGPPQPEPSPWAPCLLLGPGNLGGLLHWERLLGGLGGEEDTGRPWGPSRGPPQAQGTSSGPNCAPGSSSSSSSDEAGDPNEAPSPDTLLGALARRQLNLGQLLEDTESYLQAFLAGAAGPLNGDHPGPGQSSSPDQAPPQLSKSKGLPKSAWGGGTPEAHRPGFGATSEGQGPLPFLSMFMGAGDAPLGSRPGHPHSSSQVKSKLQIGPPSPGEAQGPLLPSPARGLKFLKLPPTSEKSPSPGGPQLSPQLPRNSRIPCRNSGSDGSPSPLLARRGLGGGELSPEGAQGLPTSPSPCYTTPDSTQLRPPQSALSTTLSPGPVVSPCYENILDLSRSTFRGPSPEPPPSPLQVPTYPQLTLEVPQAPEVLRSPGVPPSPCLPESYPYGSPQEKSLDKAGSESPHPGRRTPGNSSKKPSQGSGRRPGDPGSTPLRDRLAALGKLKTGPEGALGSEKNGVPARPGTEKTRGPGKSGESAGDMVPSIHRPLEQLEAKGGIRGAVALGTNSLKQQEPGLMGDPGARVYSSHSMGARVDLEPVSPRSCLTKVELAKSRLAGALCPQVPRTPAKVPTSAPSLGKPNKSPHSSPTKLPSKSPTKVVPRPGAPLVTKESPKPDKGKGPPWADCGSTTAQSTPLVPGPTDPSQGPEGLAPHSAIEEKVMKGIEENVLRLQGQERAPGAEVKHRNTSSIASWFGLKKSKLPALNRRTEATKNKEGAGGGSPLRREVKMEARKLEAESLNISKLMAKAEDLRRALEEEKAYLSSRARPRPGGPAPGPNTGLGQVQGQLAGMYQGADTFMQQLLNRVDGKELPSKSWREPKPEYGDFQPVSSDPKSPWPACGPRNGLVGPLQGCGKPPGKPSSEPGRREEMPSEDSLAEPVPTSHFTACGSLTRTLDSGIGTFPPPDHGSSGTPSKNLPKTKPPRLDPPPGVPPARPPPLTKVPRRAHTLEREVPGIEELLVSGRHPSMPAFPALLPAAPGHRGHETCPDDPCEDPGPTPPVQLAKNWTFPNTRAAGSSSDPLMCPPRQLEGLPRTPMALPVDRKRSQEPSRPSPTPQGPPFGGSRTPSTSDMAEEGRVASGGPPGLETSESLSDSLYDSLSSCGSQG",binds
3,"KLHL5 (protein, UniProt Q96PQ7 1-755) MNVIYFPLHIFVVYSRAYTSLVLVGCTNLCAVLFARCLDDHLVSLRMSGSRKEFDVKQILKIRWRWFGHQASSPNSTVDSQQGEFWNRGQTGANGGRKFLDPCSLQLPLASIGYRRSSQLDFQNSPSWPMASTSEVPAFEFTAEDCGGAHWLDRPEVDDGTSEEENESDSSSCRTSNSSQTLSSCHTMEPCTSDEFFQALNHAEQTFKKMENYLRHKQLCDVILVAGDRRIPAHRLVLSSVSDYFAAMFTNDVREARQEEIKMEGVEPNSLWSLIQYAYTGRLELKEDNIECLLSTACLLQLSQVVEACCKFLMKQLHPSNCLGIRSFADAQGCTDLHKVAHNYTMEHFMEVIRNQEFVLLPASEIAKLLASDDMNIPNEETILNALLTWVRHDLEQRRKDLSKLLAYIRLPLLAPQFLADMENNVLFRDDIECQKLIMEAMKYHLLPERRPMLQSPRTKPRKSTVGTLFAVGGMDSTKGATSIEKYDLRTNMWTPVANMNGRRLQFGVAVLDDKLYVVGGRDGLKTLNTVECYNPKTKTWSVMPPMSTHRHGLGVAVLEGPMYAVGGHDGWSYLNTVERWDPQARQWNFVATMSTPRSTVGVAVLSGKLYAVGGRDGSSCLKSVECFDPHTNKWTLCAQMSKRRGGVGVTTWNGLLYAIGGHDAPASNLTSRLSDCVERYDPKTDMWTAVASMSISRDAVGVCLLGDKLYAVGGYDGQAYLNTVEAYDPQTNEWTQVAPLCLGRAGACVVTVKL",binds
